US20100323906
For some of these results: A negative result means that nothing was seen under these conditions. For some of these results: Tags and fusion partners may be left off the protein sequences shown. For some of these results: The exact form of at least one protein or probe is not confirmed.

Assays:
Test in all cases: enzyme reaction in vitro
[1] = test system: Bal31 exonuclease; conditions: 5'-dithiol on upper strand, tethered to 20 nm Au nanoparticle; about 90% of 54 bp digested in 20 min; 100 nM Bal31; 10 mM MgCl2; purified native protein; protein details: Clontech
[2] = molecular target: T1, Exo-1 (exonuclease I) (UniProt P04995); conditions: 5'-dithiol on upper strand, tethered to 20 nm Au nanoparticle; control exonuclease, no effect on ruler spectra (no dsDNA cleavage); purified recombinant …
T1 sequence (looked up, limits assumed): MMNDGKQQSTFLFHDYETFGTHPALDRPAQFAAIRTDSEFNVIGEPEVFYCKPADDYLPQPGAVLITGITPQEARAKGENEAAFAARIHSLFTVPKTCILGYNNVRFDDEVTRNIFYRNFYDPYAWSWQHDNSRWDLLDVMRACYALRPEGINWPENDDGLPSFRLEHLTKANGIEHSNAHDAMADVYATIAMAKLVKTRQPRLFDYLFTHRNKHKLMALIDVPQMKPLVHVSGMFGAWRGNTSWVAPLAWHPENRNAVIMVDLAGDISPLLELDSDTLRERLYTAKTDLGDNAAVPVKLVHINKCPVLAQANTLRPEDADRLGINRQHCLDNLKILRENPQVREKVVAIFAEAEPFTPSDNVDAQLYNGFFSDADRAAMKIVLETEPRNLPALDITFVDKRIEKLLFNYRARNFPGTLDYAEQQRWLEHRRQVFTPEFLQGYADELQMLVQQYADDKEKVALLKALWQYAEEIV

[3] = molecular target: T2, KpnI (UniProt P25237); conditions: 5'-dithiol on upper strand, tethered to 20 nm Au nanoparticle; removes 6 bp from distal end; 3.5 nM enzyme; purified recombinant protein; protein details: New England Biolabs; label: FITC on 5' of lower strand
T2 sequence (looked up, limits assumed): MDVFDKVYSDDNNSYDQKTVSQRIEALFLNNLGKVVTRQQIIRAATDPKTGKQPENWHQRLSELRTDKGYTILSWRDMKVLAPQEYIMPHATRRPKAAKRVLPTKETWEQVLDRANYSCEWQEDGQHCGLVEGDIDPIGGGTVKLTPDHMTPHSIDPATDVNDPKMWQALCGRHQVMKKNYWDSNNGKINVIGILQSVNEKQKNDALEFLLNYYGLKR

[4] = molecular target: T3, SalI (UniProt Q53608); conditions: 5'-dithiol on upper strand, tethered to 20 nm Au nanoparticle; removes 18 bp from distal end; 3.5 nM enzyme; purified recombinant protein; protein details: New England Biolabs; label: FITC on 5' of lower strand
T3 sequence (looked up, limits assumed): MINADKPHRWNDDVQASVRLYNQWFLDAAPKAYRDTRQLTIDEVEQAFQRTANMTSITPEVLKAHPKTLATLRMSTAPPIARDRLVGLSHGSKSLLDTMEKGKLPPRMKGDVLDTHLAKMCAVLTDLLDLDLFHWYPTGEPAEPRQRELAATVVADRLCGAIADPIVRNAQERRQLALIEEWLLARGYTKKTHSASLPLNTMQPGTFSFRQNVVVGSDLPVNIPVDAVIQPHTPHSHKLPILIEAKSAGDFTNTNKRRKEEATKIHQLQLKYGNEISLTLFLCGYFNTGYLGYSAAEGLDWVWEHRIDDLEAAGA

| Sequence | activity on this sequence [1] | activity on this sequence [2] | activity on this sequence [3] | activity on this sequence [4] |
| --- | --- | --- | --- | --- |
| AAAGGATCCAAGCTTGAATTCCTCGAGAGATCTGTCGACGATATCGGTACCAAA (double strand) [54-bp ruler dsDNA without FITC] | active | not active |  |  |
| AAAGGATCCAAGCTTGAATTCCTCGAGAGATCTGTCGACGATATCGGTACCAAA (double strand) [54-bp ruler dsDNA] |  |  | active | active |
